These are yes or no findings as the source states them, for the method shown. In cells and extracts the contact can be indirect. These calls come from enrichment with a bait or labelling near it, and not all partners need be listed. Sequences can lack the tags named with a protein.
T1: Special AT-rich binding protein 2 (SATB2), GFP-tagged (human) (UniProt Q9UPW6)
T1 sequence: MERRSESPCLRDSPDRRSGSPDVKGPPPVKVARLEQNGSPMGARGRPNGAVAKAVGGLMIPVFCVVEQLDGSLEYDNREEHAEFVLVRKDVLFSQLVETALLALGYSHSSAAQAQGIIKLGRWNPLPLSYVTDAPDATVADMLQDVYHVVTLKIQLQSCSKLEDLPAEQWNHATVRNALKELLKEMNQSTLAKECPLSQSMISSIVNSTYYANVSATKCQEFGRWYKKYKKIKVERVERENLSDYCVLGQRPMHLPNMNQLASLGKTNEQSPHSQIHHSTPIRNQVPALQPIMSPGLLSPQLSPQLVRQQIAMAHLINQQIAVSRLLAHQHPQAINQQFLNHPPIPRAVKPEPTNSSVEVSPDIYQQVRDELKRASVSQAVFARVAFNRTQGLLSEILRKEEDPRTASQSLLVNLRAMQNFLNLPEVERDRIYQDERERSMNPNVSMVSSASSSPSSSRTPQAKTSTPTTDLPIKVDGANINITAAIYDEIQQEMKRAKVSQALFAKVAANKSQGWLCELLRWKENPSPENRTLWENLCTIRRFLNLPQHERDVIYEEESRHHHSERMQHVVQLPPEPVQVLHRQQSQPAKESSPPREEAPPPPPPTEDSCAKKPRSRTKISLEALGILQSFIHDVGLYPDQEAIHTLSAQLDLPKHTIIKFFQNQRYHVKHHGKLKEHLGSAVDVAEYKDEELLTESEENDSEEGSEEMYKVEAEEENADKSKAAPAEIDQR

Amino acid sequences for entries named in this document (tags omitted).
UniProt Q08945: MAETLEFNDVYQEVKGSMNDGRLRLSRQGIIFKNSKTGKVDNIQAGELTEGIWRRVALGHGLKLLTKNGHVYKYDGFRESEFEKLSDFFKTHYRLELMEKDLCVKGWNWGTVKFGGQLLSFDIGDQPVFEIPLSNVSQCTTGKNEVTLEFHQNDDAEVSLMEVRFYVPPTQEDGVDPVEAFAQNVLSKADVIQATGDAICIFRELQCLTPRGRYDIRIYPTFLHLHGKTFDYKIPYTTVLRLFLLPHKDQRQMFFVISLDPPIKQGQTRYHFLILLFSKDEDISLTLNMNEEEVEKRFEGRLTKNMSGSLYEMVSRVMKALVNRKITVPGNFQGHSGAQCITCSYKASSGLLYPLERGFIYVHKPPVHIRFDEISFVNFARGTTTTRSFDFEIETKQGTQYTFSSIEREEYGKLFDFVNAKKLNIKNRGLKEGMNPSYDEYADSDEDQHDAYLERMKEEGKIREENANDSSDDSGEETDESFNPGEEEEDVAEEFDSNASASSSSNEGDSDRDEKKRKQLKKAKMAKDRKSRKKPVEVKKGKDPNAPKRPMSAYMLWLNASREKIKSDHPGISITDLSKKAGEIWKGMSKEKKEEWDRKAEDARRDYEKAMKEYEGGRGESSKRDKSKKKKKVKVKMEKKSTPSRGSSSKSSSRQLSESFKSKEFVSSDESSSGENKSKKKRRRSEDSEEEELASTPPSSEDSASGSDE
UniProt P62316: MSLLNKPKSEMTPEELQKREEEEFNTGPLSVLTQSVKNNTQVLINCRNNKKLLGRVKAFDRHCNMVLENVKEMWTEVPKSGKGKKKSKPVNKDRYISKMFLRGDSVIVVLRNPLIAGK
UniProt P62318: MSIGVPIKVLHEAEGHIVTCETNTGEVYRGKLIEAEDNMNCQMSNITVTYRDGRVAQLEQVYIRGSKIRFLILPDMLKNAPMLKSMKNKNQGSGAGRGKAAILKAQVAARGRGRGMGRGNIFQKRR
UniProt P09874: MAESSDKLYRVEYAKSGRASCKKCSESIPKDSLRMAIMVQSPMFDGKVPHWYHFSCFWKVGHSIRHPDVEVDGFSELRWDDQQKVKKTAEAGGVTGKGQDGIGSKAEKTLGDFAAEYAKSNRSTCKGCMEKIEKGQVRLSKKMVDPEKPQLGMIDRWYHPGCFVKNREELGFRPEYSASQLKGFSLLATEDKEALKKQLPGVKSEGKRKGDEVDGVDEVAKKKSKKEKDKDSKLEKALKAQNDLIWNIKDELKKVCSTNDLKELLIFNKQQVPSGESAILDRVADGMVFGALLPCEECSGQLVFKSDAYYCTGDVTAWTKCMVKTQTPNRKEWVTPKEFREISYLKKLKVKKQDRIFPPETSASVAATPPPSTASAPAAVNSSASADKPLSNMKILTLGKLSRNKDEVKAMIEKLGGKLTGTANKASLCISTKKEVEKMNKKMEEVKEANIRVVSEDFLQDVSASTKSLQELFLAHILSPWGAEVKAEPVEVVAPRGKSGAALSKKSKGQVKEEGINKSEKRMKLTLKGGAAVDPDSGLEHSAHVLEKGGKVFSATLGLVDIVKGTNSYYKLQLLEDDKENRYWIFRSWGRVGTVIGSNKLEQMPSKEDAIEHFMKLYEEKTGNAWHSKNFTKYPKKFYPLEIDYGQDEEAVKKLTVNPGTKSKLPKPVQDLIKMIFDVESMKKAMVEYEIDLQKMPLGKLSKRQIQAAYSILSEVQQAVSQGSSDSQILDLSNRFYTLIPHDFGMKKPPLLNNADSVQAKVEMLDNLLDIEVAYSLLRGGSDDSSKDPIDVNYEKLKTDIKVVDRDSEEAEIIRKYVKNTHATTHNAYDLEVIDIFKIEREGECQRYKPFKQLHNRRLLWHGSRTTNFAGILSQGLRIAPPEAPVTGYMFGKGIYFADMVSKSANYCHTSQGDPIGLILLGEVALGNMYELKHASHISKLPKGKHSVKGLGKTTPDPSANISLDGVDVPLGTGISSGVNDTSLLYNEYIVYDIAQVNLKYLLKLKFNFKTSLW
UniProt Q13242: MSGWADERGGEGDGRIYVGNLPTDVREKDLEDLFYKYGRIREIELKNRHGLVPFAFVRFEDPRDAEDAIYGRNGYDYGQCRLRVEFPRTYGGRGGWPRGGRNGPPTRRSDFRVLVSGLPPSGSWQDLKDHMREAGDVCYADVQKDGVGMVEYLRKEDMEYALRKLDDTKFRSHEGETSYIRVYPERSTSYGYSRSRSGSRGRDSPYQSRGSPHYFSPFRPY
UniProt Q92769: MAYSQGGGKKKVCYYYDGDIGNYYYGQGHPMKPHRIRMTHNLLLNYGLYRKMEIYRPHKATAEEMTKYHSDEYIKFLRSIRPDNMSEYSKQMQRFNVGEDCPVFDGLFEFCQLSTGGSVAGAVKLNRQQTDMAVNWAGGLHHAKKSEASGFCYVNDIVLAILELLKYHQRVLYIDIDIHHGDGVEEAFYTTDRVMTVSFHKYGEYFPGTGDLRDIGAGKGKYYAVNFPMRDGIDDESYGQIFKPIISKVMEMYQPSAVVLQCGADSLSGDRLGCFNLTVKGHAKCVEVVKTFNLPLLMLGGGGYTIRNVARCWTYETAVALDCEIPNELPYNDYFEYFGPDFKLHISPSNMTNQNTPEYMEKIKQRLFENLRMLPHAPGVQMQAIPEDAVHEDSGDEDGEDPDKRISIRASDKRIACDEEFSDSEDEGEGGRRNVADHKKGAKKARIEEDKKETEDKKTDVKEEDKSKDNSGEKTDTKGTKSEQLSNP

B1: TRA2B (protein, UniProt P62995 1-288)
chain: MSDSGEQNYGERESRSASRSGSAHGSGKSARHTPARSRSKEDSRRSRSKSRSRSESRSRSRRSSRRHYTRSRSRSRSHRRSRSRSYSRDYRRRHSHSHSPMSTRRRHVGNRANPDPNCCLGVFGLSLYTTERDLREVFSKYGPIADVSIVYDQQSRRSRGFAFVYFENVDDAKEAKERANGMELDGRRIRVDFSITKRPHTPTPGIYMGRPTYGSSRRRDYYDRGYDRGYDDRDYYSRSYRGGGGGGGGWRAAQDRDQIYRRRSPSPYYSRGGYRSRSRSRSYSPRRY
B2: SRSF6 (protein, UniProt Q13247 1-344)
chain: MPRVYIGRLSYNVREKDIQRFFSGYGRLLEVDLKNGYGFVEFEDSRDADDAVYELNGKELCGERVIVEHARGPRRDRDGYSYGSRSGGGGYSSRRTSGRDKYGPPVRTEYRLIVENLSSRCSWQDLKDFMRQAGEVTYADAHKERTNEGVIEFRSYSDMKRALDKLDGTEINGRNIRLIEDKPRTSHRRSYSGSRSRSRSRRRSRSRSRRSSRSRSRSISKSRSRSRSRSKGRSRSRSKGRKSRSKSKSKPKSDRGSHSHSRSRSKDEYEKSRSRSRSRSPKENGKGDIKSKSRSRSQSRSNSPLPVPPSKARSVSPPPKRATSRSRSRSRSKSRSRSRSSSRD
B3: SRSF3 (protein, UniProt P84103 1-164)
chain: MHRDSCPLDCKVYVGNLGNNGNKTELERAFGYYGPLRSVWVARNPPGFAFVEFEDPRDAADAVRELDGRTLCGCRVRVELSNGEKRSRNRGPPPSWGRRPRDDYRRRSPPPRRRSPRRRSFSRSRSRSLSRDRRRERSLSRERNHKPSRSFSRSRSRSRSNERK
B4: BANF1 (protein, UniProt O75531 1-89)
chain: MTTSQKHRDFVAEPMGEKPVGSLAGIGEVLGKKLEERGFDKAYVVLGQFLVLKKDEDLFREWLKDTCGANAKQSRDCFGCLREWCDAFL

Target: T1, Special AT-rich binding protein 2 (SATB2), GFP-tagged (human)
Assay: affinity purification with mass spectrometry; 1 mg crude RIPA lysate of transfected BEAS-2B cells expressing GFP-tagged SATB2 and 3×FLAG tagged circ3915; anti-FLAG M2 affinity gel, 4 °C overnight; keratins and proteins of empty vector controls filtered out

Row | binding | Molecule
1 | binds | SSRP1 (from UniProt Q08945 1-709)
2 | binds | SNRPD2 (from UniProt P62316 1-118)
3 | binds | SNRPD3 (from UniProt P62318 1-126)
4 | binds | PARP1 (from UniProt P09874 1-1014)
5 | binds | macroH2A (human (endogenous in BEAS-2B))
6 | binds | SRSF9 (from UniProt Q13242 1-221)
7 | binds | HDAC2 (from UniProt Q92769 1-488)
8 | binds | B1
9 | binds | B2
10 | binds | B3
11 | binds | B4

From publication PMC13551775
